# Laboratory results published in patent publication US20220235134A1.
# Chains of the proteins cited; added tags and fusions are not shown.
# UniProt Q9NZQ7: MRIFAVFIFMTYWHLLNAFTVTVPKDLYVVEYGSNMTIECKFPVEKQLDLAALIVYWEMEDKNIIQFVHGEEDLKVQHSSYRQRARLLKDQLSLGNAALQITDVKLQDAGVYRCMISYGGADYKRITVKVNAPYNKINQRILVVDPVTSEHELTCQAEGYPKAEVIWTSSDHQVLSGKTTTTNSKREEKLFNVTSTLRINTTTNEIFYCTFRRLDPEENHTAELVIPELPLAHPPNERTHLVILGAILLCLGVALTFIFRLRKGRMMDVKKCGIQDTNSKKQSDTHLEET
# These are yes or no findings as the source states them, for the method shown. Some binding calls cover weakened binding; strength is not graded here.
# T1: B7-H2 (human) (UniProt O75144)
# T1 sequence (single chain, looked up): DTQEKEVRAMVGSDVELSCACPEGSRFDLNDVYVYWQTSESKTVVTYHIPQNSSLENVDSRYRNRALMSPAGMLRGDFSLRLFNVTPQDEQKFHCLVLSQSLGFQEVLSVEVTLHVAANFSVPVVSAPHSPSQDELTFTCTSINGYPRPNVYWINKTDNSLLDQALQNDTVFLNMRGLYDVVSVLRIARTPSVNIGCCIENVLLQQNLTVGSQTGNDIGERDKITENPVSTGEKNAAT
# T2: B7-H4 (human) (UniProt Q7Z7D3)
# T2 sequence (single chain, looked up): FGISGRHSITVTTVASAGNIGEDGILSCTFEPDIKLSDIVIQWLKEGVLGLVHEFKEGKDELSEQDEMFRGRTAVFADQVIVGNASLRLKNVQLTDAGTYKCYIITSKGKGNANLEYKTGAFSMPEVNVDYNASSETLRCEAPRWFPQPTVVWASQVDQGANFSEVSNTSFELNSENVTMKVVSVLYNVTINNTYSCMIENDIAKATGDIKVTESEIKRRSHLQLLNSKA
# T3: B7-H5
# T3 sequence: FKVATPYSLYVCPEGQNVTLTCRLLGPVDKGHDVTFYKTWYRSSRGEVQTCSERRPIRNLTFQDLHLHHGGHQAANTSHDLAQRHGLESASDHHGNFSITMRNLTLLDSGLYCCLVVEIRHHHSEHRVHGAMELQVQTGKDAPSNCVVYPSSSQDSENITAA
# T4: B7-H6 (human) (UniProt Q68D85)
# T4 sequence (single chain, looked up): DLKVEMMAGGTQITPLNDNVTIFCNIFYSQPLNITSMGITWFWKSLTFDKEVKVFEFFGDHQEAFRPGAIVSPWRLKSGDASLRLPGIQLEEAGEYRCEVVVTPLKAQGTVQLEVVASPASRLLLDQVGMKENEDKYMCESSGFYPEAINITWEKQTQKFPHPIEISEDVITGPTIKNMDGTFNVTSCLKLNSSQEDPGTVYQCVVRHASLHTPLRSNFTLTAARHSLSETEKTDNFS
# T5: B7-H7
# T5 sequence: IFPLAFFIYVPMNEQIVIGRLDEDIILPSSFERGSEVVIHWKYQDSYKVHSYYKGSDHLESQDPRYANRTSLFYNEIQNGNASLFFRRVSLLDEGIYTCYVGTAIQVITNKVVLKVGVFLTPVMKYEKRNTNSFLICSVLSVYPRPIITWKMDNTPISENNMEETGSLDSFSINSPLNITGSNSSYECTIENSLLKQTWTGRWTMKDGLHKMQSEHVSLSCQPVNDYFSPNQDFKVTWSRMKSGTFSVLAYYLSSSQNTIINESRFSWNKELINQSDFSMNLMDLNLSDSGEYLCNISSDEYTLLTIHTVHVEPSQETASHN
# T6: PD-L2 (human) (UniProt Q9BQ51)
# T6 sequence (single chain, looked up): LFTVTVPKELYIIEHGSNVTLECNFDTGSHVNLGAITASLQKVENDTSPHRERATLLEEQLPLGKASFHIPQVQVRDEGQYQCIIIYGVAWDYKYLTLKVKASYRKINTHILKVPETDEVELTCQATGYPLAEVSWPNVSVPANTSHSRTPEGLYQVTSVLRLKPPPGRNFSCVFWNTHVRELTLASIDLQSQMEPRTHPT
# T7: Recombinant human B7-H3 (human) (UniProt Q5ZPR3)
# T7 sequence: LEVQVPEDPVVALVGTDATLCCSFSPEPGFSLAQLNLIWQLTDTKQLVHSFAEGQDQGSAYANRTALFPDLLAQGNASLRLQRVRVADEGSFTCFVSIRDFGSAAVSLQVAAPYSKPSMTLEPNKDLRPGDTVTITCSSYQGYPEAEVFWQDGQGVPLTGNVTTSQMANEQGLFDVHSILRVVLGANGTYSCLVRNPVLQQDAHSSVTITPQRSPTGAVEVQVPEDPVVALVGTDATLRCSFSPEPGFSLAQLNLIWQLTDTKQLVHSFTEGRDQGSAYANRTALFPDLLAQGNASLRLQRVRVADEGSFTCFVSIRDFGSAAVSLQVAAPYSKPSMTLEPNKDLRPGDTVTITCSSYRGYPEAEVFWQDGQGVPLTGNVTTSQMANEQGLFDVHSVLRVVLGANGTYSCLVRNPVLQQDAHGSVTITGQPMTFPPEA
# Experiments:
# Assay in all cases: ELISA, specificity panel of human B7 family proteins, antibody titrated
# B7-1 = molecular target: B7-1
# B7-H2 (human) = molecular target: T1, B7-H2 (human)
# B7-H4 (human) = molecular target: T2, B7-H4 (human)
# B7-H5 = molecular target: T3, B7-H5
# B7-H6 (human) = molecular target: T4, B7-H6 (human)
# B7-H7 = molecular target: T5, B7-H7
# PD-L1 (human) = PD-L1 (human) (UniProt Q9NZQ7)
# PD-L2 (human) = molecular target: T6, PD-L2 (human)
# [1] = molecular target: T7, Recombinant human B7-H3 (human)
Binder,binding (B7-1),binding (B7-H2 (human)),binding (B7-H4 (human)),binding (B7-H5),binding (B7-H6 (human)),binding (B7-H7),binding (PD-L1 (human)),binding (PD-L2 (human)),binding [1]
"SCT-Da148 (antibody, V domains shown) VH: EVQLQQSGAELVKPGASVKLSCTASGVNIKDTYIHWVKQRPEQGLEWIGRIDPANGNRKYDPKFQGKATITADSSSNTAYLQLSSLTSEDTAVYYCARDGYYAPGYWGQGTTLTVSS VL: DIVMTQSQKFMSTSVGDRVSVTCKASQNVGTDVAWYQQKPGQSPKLLIYSASYRFSGVPDRFTGSGSGTDFSLAISNVQSEDLAEYFCQQYNSYPYTFGGGAKLEIK",no binding (tested: about 67 nM),no binding (tested: about 67 nM),no binding (tested: about 67 nM),no binding (tested: about 67 nM),no binding (tested: about 67 nM),no binding (tested: about 67 nM),no binding (tested: about 67 nM),no binding (tested: about 67 nM),binds
"SCT-Da182 (antibody, V domains shown) VH: EVQLQQSGPELVKPGASMKISCKVSGFSFTGYTMNWVKQSHGKNLEWIGLINTYNGGTFYNQKFKAKATLTVDKSSSTAHMELLSLTSEDSAVYYCARSPGRYSMDYWGQGTSVTVSS VL: DIVLTQSPASLAVSLGQRATISCKASQSVDYNGYSYLNWYQQKPGQPPKLLIYPASNLESGIPARFSGSGSGTDFTLNIHPVEEEDAATYYCQQSKEDPYTFGGGTKLEIK",no binding (tested: about 67 nM),no binding (tested: about 67 nM),no binding (tested: about 67 nM),no binding (tested: about 67 nM),no binding (tested: about 67 nM),no binding (tested: about 67 nM),no binding (tested: about 67 nM),no binding (tested: about 67 nM),binds
"SCT-Da192 (antibody, V domains shown) VH: EVQLQQSGPELVKPGASVKISCKTSGYTFTEYTMHWVKQSHGKSLEWIGVINPNNGGTTYNQKFKGKATLTVDKSSSTAYMELRSLTSEDSAVYYCARPHSLLRLRREFDYWGQGTTLTVSS VL: QIVLTQSPALMSASPGEKVTMTCSASSSVSYMYWYQQKPRSSPKPWIYLTSNLASGVPARFSGSGSGTSYSLTISSMEAEDAATYYCQQWSSNPLTFGAGTKLELK",,,,,,,,,binds
"SCT-Da250 (antibody, V domains shown) VH: QGQMQQSGAELVKPGASVRLSCKTSGFTFSSFYISWLKQKPGQSLEWIAWIYAGPGYTSYNQKFTGKAQLTVDTSSSTAYMQFSSLTTEDSAIYYCARHVGRQRGYFDVWGAGTTVTVSS VL: DIVMTQSHKFMSTSVGDRVSITCKASQDVSTAVAWYQQKPGQSPKLLIYSASYRYTGVPDHFTVSGSGTDFTFTISSVQAEDLAVYYCQQHYSTPWTFGGGTKLEIK",,,,,,,,,binds
"SCT-Da333 (antibody, V domains shown) VH: QVQLQQSGPELVRPGVSVKISCKGSGYTFTDYAVHWVKQSHAKSLEWIGVINTYSGNTYYNLHFKGKATMTVDKSSSTAYMELARLTSEDSAIYYCARRRGSHRDAYFDYWGQGTTLTVSS VL: DIVMTQSHKFMSTSVGDRVSITCRASQDVSTAVAWYQQKPGQSPKLLIYSASYRYTGVPDRFTVSGSGTDFTFTISSVQAEDLAVYYCQQHYSTPWTFGGGTKLEIK",,,,,,,,,binds
